Experimental data as given in PMC3475652.
These are yes or no findings as the source states them, for the method shown. Binding seen in cells or lysates may run through a third protein. Some binding calls cover weakened binding; strength is not graded here.

The chains behind the UniProt entries cited, without tags or fusion partners.
UniProt Q08999: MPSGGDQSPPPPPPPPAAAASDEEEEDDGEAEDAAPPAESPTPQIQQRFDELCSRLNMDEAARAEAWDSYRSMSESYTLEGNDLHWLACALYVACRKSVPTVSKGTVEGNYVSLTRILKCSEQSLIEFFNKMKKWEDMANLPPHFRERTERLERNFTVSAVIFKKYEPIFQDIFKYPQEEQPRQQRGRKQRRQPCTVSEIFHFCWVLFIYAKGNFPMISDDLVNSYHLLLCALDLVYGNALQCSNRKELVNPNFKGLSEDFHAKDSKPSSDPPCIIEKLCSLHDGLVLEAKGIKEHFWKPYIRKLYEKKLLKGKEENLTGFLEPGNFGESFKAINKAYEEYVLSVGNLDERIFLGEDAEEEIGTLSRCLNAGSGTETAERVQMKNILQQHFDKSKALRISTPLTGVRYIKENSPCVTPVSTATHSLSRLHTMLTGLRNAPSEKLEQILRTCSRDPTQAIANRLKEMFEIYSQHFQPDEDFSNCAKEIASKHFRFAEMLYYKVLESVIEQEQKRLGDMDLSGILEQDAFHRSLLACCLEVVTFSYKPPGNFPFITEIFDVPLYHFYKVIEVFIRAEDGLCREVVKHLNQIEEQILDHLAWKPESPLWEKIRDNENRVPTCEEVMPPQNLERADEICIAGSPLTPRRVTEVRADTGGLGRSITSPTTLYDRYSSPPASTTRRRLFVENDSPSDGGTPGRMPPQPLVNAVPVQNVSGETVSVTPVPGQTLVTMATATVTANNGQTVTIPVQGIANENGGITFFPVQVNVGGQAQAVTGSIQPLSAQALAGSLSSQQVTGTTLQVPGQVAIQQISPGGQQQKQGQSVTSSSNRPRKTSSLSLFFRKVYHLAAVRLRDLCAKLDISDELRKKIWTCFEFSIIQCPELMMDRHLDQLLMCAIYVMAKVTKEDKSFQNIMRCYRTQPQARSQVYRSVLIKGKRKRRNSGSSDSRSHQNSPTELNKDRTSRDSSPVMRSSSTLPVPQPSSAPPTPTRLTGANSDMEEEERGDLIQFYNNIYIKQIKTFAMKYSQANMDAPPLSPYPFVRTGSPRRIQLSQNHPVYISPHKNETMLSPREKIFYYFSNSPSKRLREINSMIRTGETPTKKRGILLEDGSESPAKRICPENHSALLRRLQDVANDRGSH
UniProt Q96GY3: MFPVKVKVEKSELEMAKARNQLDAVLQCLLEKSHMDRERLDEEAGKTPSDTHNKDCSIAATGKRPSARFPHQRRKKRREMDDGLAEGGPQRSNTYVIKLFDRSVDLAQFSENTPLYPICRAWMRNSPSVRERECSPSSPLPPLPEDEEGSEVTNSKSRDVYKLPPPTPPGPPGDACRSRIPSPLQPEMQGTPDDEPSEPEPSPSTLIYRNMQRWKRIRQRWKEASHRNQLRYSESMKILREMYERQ

Key:
HA-tagged p130 [1] = biological target: HA-tagged p130 (UniProt Q08999); assay: co-IP; extracts of T98G cells transfected with HA-tagged p130, without LT; anti-HA immunoprecipitation; western blot
HA-tagged p130 [2] = biological target: HA-tagged p130 (UniProt Q08999); assay: co-IP; extracts of T98G cells transfected with HA-tagged p130 and LT; anti-HA immunoprecipitation; western blot

| Substance | binding (HA-tagged p130 [1]) | binding (HA-tagged p130 [2]) |
| --- | --- | --- |
| LIN37 (from UniProt Q96GY3 1-246) | binds |  |
| SV40 large T antigen (LT) transfected into T98G cells (from UniProt P03070 1-708) |  | binds |
